In the supplement of paper PMC10735217 one finds TEAD-luciferase reporter activity data, which are given here for 28 compounds.

In the test the test system is HEK293A TEAD-LUC reporter. Description: TEAD-luciferase reporter activity (YAP activation), robust Z score vs plate; higher = stronger YAP/TEAD activation. Particulars: 24 h.

The other results are listed elsewhere or left out. This data set is noisy: repeats of one test often differ as much as different tests do.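 Human kidney-derived cells stably carry a construct in which eight TEAD-binding elements drive luciferase, measured by luminescence in a drug-repurposing library screen. A hit is any compound whose signal exceeds the plate mean by more than five robust Z scores.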

As for `CS(=O)(=O)Nc1nc(CN2CCC(c3c[nH]c4ccccc34)CC2)cs1`, the TEAD-luciferase reporter activity by setting is: (compound concentration: 200 nM) inactive: -1.65; (compound concentration: 2 uM) inactive: -0.663; (compound concentration: 10 uM) active: 7.85.
Take `O=C1CCO1`: the TEAD-luciferase reporter activity is inactive: -1.51 (compound concentration: 200 nM), inactive: 0.126 (compound concentration: 2 uM) and inactive: -0.304 (compound concentration: 10 uM).
For `CCN1CCOC2Cc3c(SC)ccc(OC)c3CC21` (centres undefined), in that order: inactive: -0.536, inactive: 0.91 and inactive: -0.585.
Turning to `CCCN(CCC)[C@@H]1CCc2ccc3[nH]c(C#N)cc3c2C1`, the TEAD-luciferase reporter activity was inactive: -0.427 (compound concentration: 200 nM), inactive: 0.0471 (compound concentration: 2 uM) and inactive: 1.92 (compound concentration: 10 uM).
In the same order, the values of `CNC(=O)ON(C(C)=O)C(=O)NC` [Caracemide] are inactive: 1.78, inactive: -1.77 and inactive: -1.68.
`CN1CCC(N(Cc2ccccc2)c2ccccc2)CC1`: the TEAD-luciferase reporter activity by setting is: (compound concentration: 200 nM) inactive: -1.05; (compound concentration: 2 uM) inactive: -0.0928; (compound concentration: 10 uM) inactive: -1.47.
`COc1ccc2[nH]cc(CCN(C(C)C)C(C)C)c2c1`: the TEAD-luciferase reporter activity is, setting by setting: (compound concentration: 200 nM) inactive: 1.17; (compound concentration: 2 uM) inactive: 4.41; (compound concentration: 10 uM) active: 19.2.
Turning to `CNCCc1ccc(O)c(O)c1` [Epinine], the TEAD-luciferase reporter activity (compound concentration: 200 nM) was inactive: 2.42, the TEAD-luciferase reporter activity (compound concentration: 2 uM) is inactive: 0.0245 and the TEAD-luciferase reporter activity (compound concentration: 10 uM) is inactive: -0.75.
With `C[C@]12C=CC(=O)C(N)=C1C=C[C@@H]1[C@@H]2CC[C@]2(C)C(=O)CC[C@@H]12`, the TEAD-luciferase reporter activity reads like this: (compound concentration: 200 nM) inactive: -1.29; (compound concentration: 2 uM) inactive: -0.991; (compound concentration: 10 uM) inactive: 1.17.
Consider `COc1cc2c(cc1O)C(CCc1ccc(Cl)cc1)N(C)CC2` (centres undefined), for which the TEAD-luciferase reporter activity (compound concentration: 200 nM) was inactive: -0.943, the TEAD-luciferase reporter activity (compound concentration: 2 uM) is inactive: -1.01 and the TEAD-luciferase reporter activity (compound concentration: 10 uM) was inactive: 1.64.
For `C[C@]12CCC(=O)C=C1CCC1C2CC[C@@]2(C)C1CC[C@@H]2OC(O)C(Cl)(Cl)Cl` (some centres undefined), the TEAD-luciferase reporter activity by setting is: (compound concentration: 200 nM) inactive: -1.61; (compound concentration: 2 uM) inactive: -0.728; (compound concentration: 10 uM) inactive: 0.672.
Take `CCCN1CCO[C@H]2c3cc(O)ccc3OC[C@H]21`: the TEAD-luciferase reporter activity is inactive: -1.6 (compound concentration: 200 nM), inactive: -1.43 (compound concentration: 2 uM) and inactive: -1.06 (compound concentration: 10 uM).
As to `CC(C)[N+](C)(CCC(C(N)=O)(c1ccccc1)c1ccccc1)C(C)C`, the TEAD-luciferase reporter activity is inactive: -1 (compound concentration: 200 nM) and inactive: -0.00528 (compound concentration: 10 uM).
With `CC(C)[N+](C)(CCC(C(N)=O)(c1ccccc1)c1ccccc1)C(C)C` [Isopropamide iodide], the TEAD-luciferase reporter activity (compound concentration: 2 uM) was inactive: -0.223.
Regarding `CS(=O)(=O)CS(=O)(=O)OCCCl` [Clomesone], the TEAD-luciferase reporter activity (compound concentration: 200 nM) is inactive: -0.399, the TEAD-luciferase reporter activity (compound concentration: 2 uM) is inactive: -1.24 and the TEAD-luciferase reporter activity (compound concentration: 10 uM) was inactive: -0.884.
Regarding `CN1C(=O)[C@H](NC(=O)Nc2cccc(-c3noc(=O)[nH]3)c2)N=C(c2ccccc2)c2ccccc21`, the TEAD-luciferase reporter activity is inactive: -1.37 (compound concentration: 200 nM), inactive: 0.225 (compound concentration: 2 uM) and inactive: 1.19 (compound concentration: 10 uM).
For `CN[C@@H]1C[C@H]2O[C@@](C)([C@@H]1OC)n1c3ccccc3c3c4c(c5c6ccccc6n2c5c31)C(=O)NC4` [Staurosporine], the TEAD-luciferase reporter activity is inactive: 4.09 (compound concentration: 200 nM), inactive: -2.77 (compound concentration: 2 uM) and inactive: -1.89 (compound concentration: 10 uM).
Turning to `CC(C)OC(=O)[C@H](C)N[P@](=O)(CO[C@H](C)Cn1cnc2c(N)ncnc21)Oc1ccccc1` [Tenofovir alafenamide], the TEAD-luciferase reporter activity was inactive: 0.269 (compound concentration: 200 nM) and inactive: -1.56 (compound concentration: 10 uM).
As to `CC(C)OC(=O)[C@H](C)N[P@](=O)(CO[C@H](C)Cn1cnc2c(N)ncnc21)Oc1ccccc1` [tenofovir alafenamide], the TEAD-luciferase reporter activity (compound concentration: 2 uM) is inactive: -2.71.
As for `CC(=O)NC(CCN1[C@@H]2CC[C@H]1C[C@@H](n1c(C)nc3c1CN(C(=O)C(C)C)CC3)C2)c1cccc(F)c1` (some centres undefined), the TEAD-luciferase reporter activity reads like this: (compound concentration: 200 nM) inactive: 1.31; (compound concentration: 2 uM) inactive: -1.19; (compound concentration: 10 uM) inactive: -1.84.
Turning to `C[C@@]1(O)CC[C@H]2[C@H](CC[C@@H]3[C@@H]2CC[C@]2(C)[C@@H](C(=O)Cn4cc(C#N)cn4)CC[C@@H]32)C1`, the TEAD-luciferase reporter activity is, setting by setting: (compound concentration: 200 nM) inactive: 0.586; (compound concentration: 10 uM) inactive: 0.299.
With `O=[N+]([O-])OCC(CO[N+](=O)[O-])O[N+](=O)[O-]` [Nitroglycerin], the TEAD-luciferase reporter activity is inactive: 0.747 (compound concentration: 200 nM), inactive: -0.762 (compound concentration: 2 uM) and inactive: 1.32 (compound concentration: 10 uM).
In the same order, the values of `CNC(=O)Cn1c(=O)n(C2CCN(C3Cc4cccc5cccc3c45)CC2)c2ccccc21` (centres undefined) are inactive: 2.64, inactive: -0.806 and inactive: -0.0396.
`CCCCCCC(=O)O[C@H]1CC[C@H]2[C@@H]3CCC4=CC(=O)CC[C@]4(C)[C@H]3CC[C@]12C` [delta6-Testosterone Enanthate]: the TEAD-luciferase reporter activity reads like this: (compound concentration: 200 nM) inactive: -0.543; (compound concentration: 10 uM) inactive: 0.807.
On to `CCCCCCC(=O)O[C@H]1CC[C@H]2[C@@H]3CCC4=CC(=O)CC[C@]4(C)[C@H]3CC[C@]12C` [Testosterone enanthate], for which the TEAD-luciferase reporter activity (compound concentration: 2 uM) was inactive: 0.984.
Take `COC1CC(OC2CCC3(C=O)[C@H]4CCC5(C)C(C6=CC(=O)OC6)CCC5(O)[C@@H]4CCC3(O)C2)OC(C)C1O` (some centres undefined): the TEAD-luciferase reporter activity is active: 12.2 (compound concentration: 200 nM), inactive: -2.04 (compound concentration: 2 uM) and active: 21.4 (compound concentration: 10 uM).
As to `C#CC(C)(CC)OC(N)=O` (centres undefined), the TEAD-luciferase reporter activity (compound concentration: 200 nM) is inactive: 1.63, the TEAD-luciferase reporter activity (compound concentration: 2 uM) is inactive: -1.85 and the TEAD-luciferase reporter activity (compound concentration: 10 uM) was inactive: 1.52.
For the compound `COCN1C(=O)CN=C(c2ccccc2)c2cc([N+](=O)[O-])ccc21` [Motrazepam], the TEAD-luciferase reporter activity is, setting by setting: (compound concentration: 200 nM) inactive: -0.818; (compound concentration: 2 uM) inactive: -1.31; (compound concentration: 10 uM) inactive: -1.38.
